Reference: PubChem BioAssay AID504808 (Drosophila RNAi Screening Center, 2011)
The deposit covers about 21,000 reagents; this is a random part of those with a known target gene and a result. Of all reagents, 18 (0.084%) got an active call. 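Raw counts without plate normalisation, one of two replicates; the ratio scores behind the calls were not deposited.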 The record does not give: the amount of reagent, the time to read-out.

Assay: 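Fly genes required to hold E2F transcription in check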 (primary screen)
Cells: Drosophila S2 cells
Reagents: long dsRNA against Drosophila genes
Measured: 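Firefly luciferase driven by E2F sites, normalised to Renilla luciferase on the same minimal promoter, measured by plate reader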
Scale: E2F firefly: higher = more E2F reporter activity; Renilla normaliser: higher = more normaliser reporter signal
Rule for the call: 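a knock-down counted as active when the firefly/Renilla E2F signal rose above 50%, a threshold chosen arbitrarily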

What is on record for capt [DRSC00676]?
E2F firefly, rep 1: 1.49e5; Renilla normaliser, rep 1: 5380; activity call: inactive

With capt [DRSC00806], what does the deposit list?
E2F firefly, rep 1: 1.63e5; Renilla normaliser, rep 1: 5865; activity call: inactive

What did the screen give for Acp62F [DRSC08136]?
E2F firefly, rep 1: 1.09e5; Renilla normaliser, rep 1: 4406; activity call: inactive

What is on record for Spx [DRSC18720]?
E2F firefly, rep 1: 50541; Renilla normaliser, rep 1: 4821; activity call: inactive

With CG14535 [DRSC02393], what was measured?
E2F firefly, rep 1: 1.53e5; Renilla normaliser, rep 1: 4723; activity call: inactive

Which result is listed for janB [DRSC16973]?
E2F firefly, rep 1: 1.11e5; Renilla normaliser, rep 1: 6091; activity call: inactive

What is on record for mthl8 [DRSC08211]?
E2F firefly, rep 1: 74147; Renilla normaliser, rep 1: 3082; activity call: inactive

What did the screen give for mthl8 [DRSC08311]?
E2F firefly, rep 1: 98687; Renilla normaliser, rep 1: 3948; activity call: inactive

Limited to “Renilla normaliser, rep 1” (2 entries from above):
janB [DRSC16973] = 6091
mthl8 [DRSC08211] = 3082

The listing continues:
For Cht10 [DRSC03766], how do the results read?
E2F firefly, rep 1: 1.08e5; Renilla normaliser, rep 1: 4793; activity call: inactive

How did the screen score Cht10 [DRSC03767]?
E2F firefly, rep 1: 77777; Renilla normaliser, rep 1: 3565; activity call: inactive

For Cht10 [DRSC03768], what was measured?
E2F firefly, rep 1: 1.02e5; Renilla normaliser, rep 1: 4272; activity call: inactive

What did the screen give for Rsph4a [DRSC04338]?
E2F firefly, rep 1: 79799; Renilla normaliser, rep 1: 3115; activity call: inactive
